These results are taken from paper PMC7309474.

By UniProt entry, the sequences of proteins in these tests, tags left out.
UniProt P35222: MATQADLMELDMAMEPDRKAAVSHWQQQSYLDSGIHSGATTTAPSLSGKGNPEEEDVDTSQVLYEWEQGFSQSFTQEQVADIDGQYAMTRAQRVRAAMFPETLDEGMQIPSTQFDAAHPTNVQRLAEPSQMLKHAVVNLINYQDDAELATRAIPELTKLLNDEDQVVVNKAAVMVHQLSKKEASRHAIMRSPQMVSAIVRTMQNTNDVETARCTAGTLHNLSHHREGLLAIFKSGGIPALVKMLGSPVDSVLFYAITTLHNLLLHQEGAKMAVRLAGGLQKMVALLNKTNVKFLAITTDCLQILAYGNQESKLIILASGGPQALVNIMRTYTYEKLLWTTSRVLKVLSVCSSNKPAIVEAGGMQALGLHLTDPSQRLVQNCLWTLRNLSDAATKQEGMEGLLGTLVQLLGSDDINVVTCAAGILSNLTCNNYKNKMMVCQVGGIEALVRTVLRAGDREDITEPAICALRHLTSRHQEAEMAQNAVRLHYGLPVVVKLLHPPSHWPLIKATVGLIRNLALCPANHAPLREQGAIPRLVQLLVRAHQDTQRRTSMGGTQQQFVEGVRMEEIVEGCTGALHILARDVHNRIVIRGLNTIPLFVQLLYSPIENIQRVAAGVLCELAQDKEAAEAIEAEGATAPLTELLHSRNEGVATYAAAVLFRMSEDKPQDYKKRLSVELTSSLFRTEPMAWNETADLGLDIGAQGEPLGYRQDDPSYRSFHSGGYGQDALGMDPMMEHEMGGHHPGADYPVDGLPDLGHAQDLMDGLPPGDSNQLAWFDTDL
UniProt P25054: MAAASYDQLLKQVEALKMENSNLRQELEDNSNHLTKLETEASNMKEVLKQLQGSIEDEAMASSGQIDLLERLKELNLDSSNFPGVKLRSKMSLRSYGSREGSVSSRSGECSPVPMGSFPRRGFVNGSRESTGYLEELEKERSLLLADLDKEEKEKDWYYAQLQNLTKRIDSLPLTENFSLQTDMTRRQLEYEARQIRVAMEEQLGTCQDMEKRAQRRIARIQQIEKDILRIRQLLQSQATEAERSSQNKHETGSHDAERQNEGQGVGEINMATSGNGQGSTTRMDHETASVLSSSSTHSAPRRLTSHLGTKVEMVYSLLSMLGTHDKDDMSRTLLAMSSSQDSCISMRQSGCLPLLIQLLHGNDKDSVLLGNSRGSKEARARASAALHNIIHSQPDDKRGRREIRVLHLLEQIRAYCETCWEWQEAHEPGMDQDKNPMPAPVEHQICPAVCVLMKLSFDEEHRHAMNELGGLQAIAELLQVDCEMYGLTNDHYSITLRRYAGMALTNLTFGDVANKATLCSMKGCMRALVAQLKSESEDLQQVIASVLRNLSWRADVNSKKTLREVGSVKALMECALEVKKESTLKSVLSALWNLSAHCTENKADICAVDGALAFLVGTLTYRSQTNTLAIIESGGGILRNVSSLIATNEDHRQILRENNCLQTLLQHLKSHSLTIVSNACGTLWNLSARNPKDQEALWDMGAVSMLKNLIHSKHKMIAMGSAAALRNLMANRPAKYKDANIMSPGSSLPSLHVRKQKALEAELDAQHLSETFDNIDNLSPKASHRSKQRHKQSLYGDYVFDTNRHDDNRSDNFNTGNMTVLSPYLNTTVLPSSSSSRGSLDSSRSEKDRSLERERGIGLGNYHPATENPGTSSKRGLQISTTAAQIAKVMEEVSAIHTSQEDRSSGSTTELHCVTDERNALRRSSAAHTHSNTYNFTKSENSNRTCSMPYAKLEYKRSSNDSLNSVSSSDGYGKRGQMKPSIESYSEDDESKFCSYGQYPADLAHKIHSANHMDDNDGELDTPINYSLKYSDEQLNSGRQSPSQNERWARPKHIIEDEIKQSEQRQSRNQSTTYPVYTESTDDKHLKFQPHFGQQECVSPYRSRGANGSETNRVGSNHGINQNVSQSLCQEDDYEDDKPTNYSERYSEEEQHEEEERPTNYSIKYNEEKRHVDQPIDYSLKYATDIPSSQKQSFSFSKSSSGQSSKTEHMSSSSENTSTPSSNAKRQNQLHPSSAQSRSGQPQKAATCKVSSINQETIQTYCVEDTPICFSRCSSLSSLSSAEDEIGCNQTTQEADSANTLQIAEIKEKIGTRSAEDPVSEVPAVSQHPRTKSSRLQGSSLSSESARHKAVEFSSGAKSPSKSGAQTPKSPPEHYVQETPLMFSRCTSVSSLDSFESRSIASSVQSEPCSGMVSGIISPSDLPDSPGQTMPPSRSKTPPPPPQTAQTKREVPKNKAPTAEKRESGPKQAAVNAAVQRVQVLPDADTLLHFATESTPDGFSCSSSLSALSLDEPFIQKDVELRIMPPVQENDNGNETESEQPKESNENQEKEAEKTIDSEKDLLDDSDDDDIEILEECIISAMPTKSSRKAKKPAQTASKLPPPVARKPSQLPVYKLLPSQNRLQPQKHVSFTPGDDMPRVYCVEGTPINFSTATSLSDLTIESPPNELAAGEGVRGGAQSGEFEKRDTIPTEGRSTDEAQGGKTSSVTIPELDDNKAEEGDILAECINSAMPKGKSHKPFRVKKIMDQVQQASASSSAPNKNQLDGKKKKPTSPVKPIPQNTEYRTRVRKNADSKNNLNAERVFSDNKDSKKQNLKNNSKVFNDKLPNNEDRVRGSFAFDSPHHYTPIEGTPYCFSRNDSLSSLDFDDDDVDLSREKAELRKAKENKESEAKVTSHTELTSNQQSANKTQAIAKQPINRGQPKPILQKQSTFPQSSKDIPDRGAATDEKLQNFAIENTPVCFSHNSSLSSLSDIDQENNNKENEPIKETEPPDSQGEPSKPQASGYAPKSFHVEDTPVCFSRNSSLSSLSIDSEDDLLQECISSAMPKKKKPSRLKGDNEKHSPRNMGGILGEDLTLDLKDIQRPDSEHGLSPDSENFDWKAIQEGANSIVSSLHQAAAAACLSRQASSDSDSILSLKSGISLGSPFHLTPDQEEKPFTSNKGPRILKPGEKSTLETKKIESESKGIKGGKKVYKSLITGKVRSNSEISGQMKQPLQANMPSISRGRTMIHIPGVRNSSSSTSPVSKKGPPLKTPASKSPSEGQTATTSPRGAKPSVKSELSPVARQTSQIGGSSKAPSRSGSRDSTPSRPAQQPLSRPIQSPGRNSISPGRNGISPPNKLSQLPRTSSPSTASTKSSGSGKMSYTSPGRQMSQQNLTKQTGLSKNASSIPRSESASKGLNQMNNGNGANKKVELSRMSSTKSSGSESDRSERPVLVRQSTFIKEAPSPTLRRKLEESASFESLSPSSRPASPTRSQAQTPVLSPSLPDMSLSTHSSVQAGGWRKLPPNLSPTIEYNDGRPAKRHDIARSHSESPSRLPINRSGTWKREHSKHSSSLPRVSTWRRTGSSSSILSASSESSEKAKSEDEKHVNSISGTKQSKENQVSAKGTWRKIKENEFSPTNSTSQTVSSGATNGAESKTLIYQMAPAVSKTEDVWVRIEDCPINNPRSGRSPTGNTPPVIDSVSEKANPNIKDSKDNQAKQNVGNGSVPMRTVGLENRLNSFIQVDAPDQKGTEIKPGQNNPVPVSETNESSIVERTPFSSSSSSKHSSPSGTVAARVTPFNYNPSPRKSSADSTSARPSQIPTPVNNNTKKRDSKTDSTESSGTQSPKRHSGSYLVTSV

These are yes or no findings as the source states them, for the method shown. In cells and extracts the contact can be indirect. Some binding calls cover weakened binding; strength is not graded here. Where a sequence is shown, tags or fusion partners need not be part of it.

What all share (experiment): co-IP; U2OS cells overexpressing KIF18B with a DDK tag (or Ctrl); 1% NP40 lysis buffer (150 mM NaCl, 50 mM Tris-HCl pH 7.4); ATF2, DDK, APC or β-catenin antibodies on protein A/G agarose, overnight with lysate; Western blot
The target in experiment [1] is β-catenin (human (endogenous in U2OS)) (UniProt P35222).
Experiment [2] deals with adenomatous polyposis coli (APC) tumor suppressor (human (endogenous in U2OS)) (UniProt P25054).
For experiment [3], the target named is T1, ATF2 (human (endogenous in U2OS)) (UniProt P15336).
T1 sequence: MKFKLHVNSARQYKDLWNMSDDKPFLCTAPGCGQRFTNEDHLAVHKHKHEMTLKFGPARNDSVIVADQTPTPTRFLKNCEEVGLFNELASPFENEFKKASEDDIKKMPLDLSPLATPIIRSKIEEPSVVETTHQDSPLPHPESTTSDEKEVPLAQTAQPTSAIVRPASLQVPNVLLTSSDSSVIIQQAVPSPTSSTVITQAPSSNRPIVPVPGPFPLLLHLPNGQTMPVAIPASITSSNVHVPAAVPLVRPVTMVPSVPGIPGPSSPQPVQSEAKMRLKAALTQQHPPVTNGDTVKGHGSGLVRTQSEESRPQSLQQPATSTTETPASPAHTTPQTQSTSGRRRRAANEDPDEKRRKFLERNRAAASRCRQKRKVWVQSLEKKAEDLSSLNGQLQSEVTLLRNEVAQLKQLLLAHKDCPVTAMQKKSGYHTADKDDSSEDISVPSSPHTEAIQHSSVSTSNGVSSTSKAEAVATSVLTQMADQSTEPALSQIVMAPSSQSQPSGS

B1: KIF18B with a DDK tag (protein, UniProt Q86Y91 1-852)
chain: MAVEDSTLQVVVRVRPPTPRELDSQRRPVVQVVDERVLVFNPEEPDGGFPGLKWGGTHDGPKKKGKDLTFVFDRVFGEAATQQDVFQHTTHSVLDSFLQGYNCSVFAYGATGAGKTHTMLGREGDPGIMYLTTVELYRRLEARQQEKHFEVLISYQEVYNEQIHDLLEPKGPLAIREDPDKGVVVQGLSFHQPASAEQLLEILTRGNRNRTQHPTDANATSSRSHAIFQIFVKQQDRVPGLTQAVQVAKMSLIDLAGSERASSTHAKGERLREGANINRSLLALINVLNALADAKGRKTHVPYRDSKLTRLLKDSLGGNCRTVMIAAISPSSLTYEDTYNTLKYADRAKEIRLSLKSNVTSLDCHISQYATICQQLQAEVAALRKKLQVYEGGGQPPPQDLPGSPKSGPPPEHQPCTPELPAGPRALQEESLGMEAQVERAMEGNSSDQEQSPEDEDEGPAEEVPTQMPEQNPTHALPESPRLTLQPKPVVGHFSARELDGDRSKQLALKVLCVAQRQYSLLQAANLLTPDMITEFETLQQLVQEEKIEPGAEALRTSGLARGAPLAQELCSESIPVPSPLCPEPPGYTGPVTRTMARRLSGPLHTLGIPPGPNCTPAQGSRWPMEKKRRRPSALEADSPMAPKRGTKRQRQSFLPCLRRGSLPDTQPSQGPSTPKGERASSPCHSPRVCPATVIKSRVPLGPSAMQNCSTPLALPTRDLNATFDLSEEPPSKPSFHECIGWDKIPQELSRLDQPFIPRAPVPLFTMKGPKPTSSLPGTSACKKKRVASSSVSHGRSRIARLPSSTLKRPAGPLVLPELPLSPLCPSNRRNGKDLIRVGRALSAGNGVTKVS
Regarding B1, the binding result is “no binding” in experiment [1], “binds” in experiment [2] and “binds” in experiment [3].
